Patent publication US20240350430A1, “GROWTH INHIBITOR OF METASTATIC HUMAN PROSTATE CANCER CELLS” (Watanabe Oyster Laboratory Co., Ltd., priority 2021, published 2024)
At least one compound was matched to its structure with a doubt left.

Columns and labels:
[1] = system: PC-3 cells; experiment: Cell growth of PC-3 cells (cell counting); format: cell-based, human; settings: three days
Description: (§1) The PC-3 and DU-145 cells (the cell number of 1×10^5/in 1 ml of a culture fluid per hole using a 24-hole plate) were cultured in a DMEM culture fluid (containing 10% of FBS, 1% of P/S, and 1% of fungizone) containing the DHMBA (1 and 10 μM) under 5% of CO2, at 37° C., for one, two, three, four, and six days. […] The cell number in the cell suspension was counted by the method described in the item of “Measurement of Cell Number.”
(§2) After the culture of the cells, 0.1 ml of 0.05% trypsin-EDTA solution obtained by dissolving the cells adhering to the bottom surface of the culture dish in PBS (Thermo Fisher Scientific, Waltham, MA, USA) not containing Ca^2+/Mg^2+ was added, incubation was performed at 37° C. for two minutes to release the adhering cells, and 0.9 ml of the DMEM culture fluid containing 10% of FBS and 1% of P/S was added to stop the reaction. The visible cells were counted by the Olympus MTV-3 microscope using a hemocytometer (Sigma-Aldrich). […]
(§3) In FIGS. 1(D) and 1(E), the PC-3 cells (1×10^5 cells/per well of a 24-well plate) were cultured under 5% of CO2, at 37° C., for three (FIG. 1D) and six (FIG. 1E) days in a DMEM culture fluid (containing 10% of FBS, 1% of P/S, and 1% of fungizone) containing the DHMBA (0.01, 0.1, 1, 10, 100, and 1000 μM). After the culture, the cells adhered to the bottom surface of the dish were removed and counted. […]

[2] = system: DU-145 cells; experiment: Cell growth of DU-145 cells (cell counting); format: cell-based, human; settings: three days, roscovitine 10 or 100 nM, butyrate 10 or 100 μM, sulforaphane 1 or 10 nM
Description: as §1, §2
as §3, with “2(D)” for “1(D)”, “2(E),” for “1(E),”, “DU-145” for “PC-3”, “2D)” for “1D)”, “2E)” for “1E)”, “the” for “the bottom surface of the”

SMILES	cell growth in the presence of intracellular signaling inhibitor alone ([1]; wortmannin 10 or 100 nM, PD98059 1 or 10 μM, staurosporine 1 or 10 nM)	cell growth in the presence of cell cycle inhibitor alone ([1]; roscovitine 10 or 100 nM, butyrate 10 or 100 μM, sulforaphane 1 or 10 nM)	cell growth in the presence of cell cycle inhibitor alone [2]
COC[C@H]1OC(=O)c2coc3c2[C@@]1(C)C1=C(C3=O)[C@@H]2CCC(=O)[C@@]2(C)C[C@H]1OC(C)=O [wortmannin]	inhibited		
CCCC(=O)O [butyrate]		inhibited	inhibited
